This passage reports binding signal results from paper PMC7862700.

By UniProt entry, the sequences of proteins in these tests, tags left out. Where a name states a change or a piece, a line headed by the entry shows the natural chain unless it says otherwise.
UniProt Q01892: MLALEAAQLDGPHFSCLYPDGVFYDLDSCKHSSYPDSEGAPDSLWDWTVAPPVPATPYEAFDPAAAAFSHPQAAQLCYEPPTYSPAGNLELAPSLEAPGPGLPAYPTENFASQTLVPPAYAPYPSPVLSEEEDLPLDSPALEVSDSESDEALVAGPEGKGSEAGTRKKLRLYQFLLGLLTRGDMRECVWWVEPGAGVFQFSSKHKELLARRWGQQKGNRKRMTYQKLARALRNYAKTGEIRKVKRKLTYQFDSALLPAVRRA
UniProt P41161: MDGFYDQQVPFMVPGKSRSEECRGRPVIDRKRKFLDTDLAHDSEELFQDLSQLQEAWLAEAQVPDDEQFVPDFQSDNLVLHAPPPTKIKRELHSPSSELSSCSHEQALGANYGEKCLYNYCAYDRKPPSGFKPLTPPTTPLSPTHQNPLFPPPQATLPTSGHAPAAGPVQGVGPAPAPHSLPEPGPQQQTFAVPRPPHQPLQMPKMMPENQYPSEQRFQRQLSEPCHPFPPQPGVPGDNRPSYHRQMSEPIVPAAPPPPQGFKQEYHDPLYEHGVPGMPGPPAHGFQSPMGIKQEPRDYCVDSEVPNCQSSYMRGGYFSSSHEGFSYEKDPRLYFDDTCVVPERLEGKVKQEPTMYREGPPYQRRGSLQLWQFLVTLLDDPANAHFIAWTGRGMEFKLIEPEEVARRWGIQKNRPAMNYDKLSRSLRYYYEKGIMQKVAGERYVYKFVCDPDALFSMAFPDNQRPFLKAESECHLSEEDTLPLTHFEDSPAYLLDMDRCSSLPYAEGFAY
UniProt Q99607: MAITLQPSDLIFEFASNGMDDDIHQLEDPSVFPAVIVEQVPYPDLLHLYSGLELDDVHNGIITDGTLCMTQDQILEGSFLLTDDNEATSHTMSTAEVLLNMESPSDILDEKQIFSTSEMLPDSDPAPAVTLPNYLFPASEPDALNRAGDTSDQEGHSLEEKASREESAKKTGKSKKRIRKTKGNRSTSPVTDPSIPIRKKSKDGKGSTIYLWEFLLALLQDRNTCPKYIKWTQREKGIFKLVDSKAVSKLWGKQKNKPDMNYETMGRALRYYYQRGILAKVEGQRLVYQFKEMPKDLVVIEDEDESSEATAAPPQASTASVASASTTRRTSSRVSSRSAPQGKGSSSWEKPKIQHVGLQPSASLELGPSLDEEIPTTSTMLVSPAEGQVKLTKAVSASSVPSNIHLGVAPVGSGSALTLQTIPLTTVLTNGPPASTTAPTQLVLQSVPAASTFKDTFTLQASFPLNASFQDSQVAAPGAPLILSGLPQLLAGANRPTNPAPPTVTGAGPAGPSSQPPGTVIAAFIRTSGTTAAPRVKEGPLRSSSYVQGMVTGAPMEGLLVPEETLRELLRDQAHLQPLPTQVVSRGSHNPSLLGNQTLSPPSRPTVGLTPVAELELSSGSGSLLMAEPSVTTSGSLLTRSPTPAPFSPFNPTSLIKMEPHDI

This is a selection; strong and weak results do not stand in their true shares. At the low end of the ranking the order means little.

Targets include SPIB (UniProt Q01892); ETV5 (UniProt P41161); ELF4 (UniProt Q99607).
Common to all, as to experiment: DAPPL (digital affinity profiling via proximity ligation, sequencing)
Settings in all cases: 10 mM Tris-HCl pH 7.5, 50 mM NaCl, 1 mM DTT, 4% glycerol, room temperature, 30 min; GST-TFs on glutathione beads, 16-mer random dsDNA library, 0.1% …; high values mean tight binding; double strand, one strand shown; scale: fold enrichment (6-mer frequency, TF over GST control)

In a further assay the target is T1, FLI1 (UniProt Q01543).
T1 sequence: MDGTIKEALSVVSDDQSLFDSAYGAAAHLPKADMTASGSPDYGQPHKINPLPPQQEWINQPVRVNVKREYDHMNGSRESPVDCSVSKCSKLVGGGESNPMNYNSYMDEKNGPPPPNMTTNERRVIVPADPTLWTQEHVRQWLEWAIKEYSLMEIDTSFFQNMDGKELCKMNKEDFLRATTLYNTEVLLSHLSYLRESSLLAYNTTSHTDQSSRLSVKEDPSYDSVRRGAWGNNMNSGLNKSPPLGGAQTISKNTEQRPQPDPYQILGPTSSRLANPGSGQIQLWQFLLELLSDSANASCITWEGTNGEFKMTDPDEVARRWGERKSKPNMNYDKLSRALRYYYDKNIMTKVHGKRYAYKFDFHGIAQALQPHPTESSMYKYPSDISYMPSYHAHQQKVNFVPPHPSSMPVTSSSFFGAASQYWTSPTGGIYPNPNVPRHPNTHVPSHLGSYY

The target of the next assay is T2, EHF (UniProt Q9NZC4).
T2 sequence: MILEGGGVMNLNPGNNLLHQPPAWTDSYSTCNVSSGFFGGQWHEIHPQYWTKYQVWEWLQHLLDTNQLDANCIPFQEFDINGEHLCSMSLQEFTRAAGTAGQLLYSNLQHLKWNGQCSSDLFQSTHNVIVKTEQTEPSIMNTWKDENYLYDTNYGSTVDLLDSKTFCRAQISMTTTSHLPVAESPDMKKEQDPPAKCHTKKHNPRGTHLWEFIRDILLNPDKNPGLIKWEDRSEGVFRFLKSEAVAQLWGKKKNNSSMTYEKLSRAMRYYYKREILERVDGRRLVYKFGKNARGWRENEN

The target in another assay is T3, ETV2 (UniProt O00321).
T3 sequence: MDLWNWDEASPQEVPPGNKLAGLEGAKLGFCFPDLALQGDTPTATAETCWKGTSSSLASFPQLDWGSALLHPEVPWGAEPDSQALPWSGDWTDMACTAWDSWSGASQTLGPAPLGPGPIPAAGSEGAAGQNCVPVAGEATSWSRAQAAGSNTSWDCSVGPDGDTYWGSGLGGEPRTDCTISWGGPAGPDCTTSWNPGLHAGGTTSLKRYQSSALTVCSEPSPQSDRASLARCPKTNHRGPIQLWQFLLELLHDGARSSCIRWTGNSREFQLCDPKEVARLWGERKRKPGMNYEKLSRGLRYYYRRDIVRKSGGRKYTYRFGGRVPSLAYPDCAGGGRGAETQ

The target in the next assay is T4, ETV3L (UniProt Q6ZN32).
T4 sequence: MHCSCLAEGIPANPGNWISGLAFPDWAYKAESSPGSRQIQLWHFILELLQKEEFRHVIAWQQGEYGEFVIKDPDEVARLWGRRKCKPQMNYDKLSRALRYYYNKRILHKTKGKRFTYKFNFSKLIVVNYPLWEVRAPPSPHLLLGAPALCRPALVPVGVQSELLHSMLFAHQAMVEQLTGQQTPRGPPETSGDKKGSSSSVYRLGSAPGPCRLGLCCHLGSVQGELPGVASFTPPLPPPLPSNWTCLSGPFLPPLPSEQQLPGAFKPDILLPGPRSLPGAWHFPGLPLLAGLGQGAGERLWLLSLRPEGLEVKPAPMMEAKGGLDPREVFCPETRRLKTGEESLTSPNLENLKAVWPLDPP

For GCAGGT, the binding signal came out at 0.897 in the assay with FLI1; 0.819 with EHF; 0.821 with SPIB; 0.842 with ETV5; 0.871 with ELF4; 0.855 in the assay with ETV2. Besides, the binding signal in the assay with ETV3L turned out to be 0.804.

With GTGCAC, the binding signal with FLI1 is 0.912; with EHF, 0.972; with SPIB, 0.93; with ETV5, 0.965; with ELF4, 0.931; in the assay with ETV2 it was 0.974. This sequence also returned a binding signal with ETV3L of 0.868.

In the case of AAGCCG, the binding signal was 0.923 in the assay with FLI1; 0.919 with EHF; 0.859 in the assay with SPIB; 0.929 with ETV5; 0.884 in the assay with ELF4; 0.918 with ETV2. This sequence gave a binding signal with ETV3L of 0.888.

For GCGCGT, the binding signal with FLI1 was 0.862; in the assay with EHF, 0.857; with SPIB, 0.869; in the assay with ETV5, 0.801; with ELF4, 0.884; with ETV2, 0.968. The binding signal in the assay with ETV3L was 0.888.

Take GCCCGG: the binding signal with FLI1 came out at 0.987; with EHF, 0.926; in the assay with SPIB it was 0.925; in the assay with ETV5, 1.01; in the assay with ELF4 it was 0.962; in the assay with ETV2, 0.848. The sequence further yielded a binding signal with ETV3L of 0.875.

Turning to CGAGTA, the binding signal with FLI1 stood at 0.838; in the assay with EHF, 0.797; in the assay with SPIB, 0.797; in the assay with ETV5, 0.866; in the assay with ELF4, 0.883; in the assay with ETV2, 0.902. In addition, the binding signal in the assay with ETV3L worked out at 0.765.

In the case of AGAACC, the binding signal with FLI1 turned out to be 0.863; in the assay with EHF it was 0.914; with SPIB, 0.856; with ETV5, 0.917; with ELF4, 0.898; with ETV2, 0.926. The sequence further returned a binding signal with ETV3L of 0.909.

Consider AGAATC, for which the binding signal with FLI1 was determined as 0.921; with EHF, 0.845; with SPIB, 0.979; with ETV5, 0.978; with ELF4, 0.928; with ETV2 it was 0.941. In addition, the binding signal with ETV3L turned out to be 0.969.

Turning to CGTCAT, the binding signal in the assay with FLI1 stood at 0.935; with EHF, 0.942; with SPIB, 0.96; in the assay with ETV5, 1; with ELF4 it was 0.962; with ETV2, 0.947. In addition, the binding signal in the assay with ETV3L is 0.977.

With TAAGGC, the binding signal with FLI1 amounted to 0.962; in the assay with EHF, 0.871; in the assay with SPIB, 0.962; in the assay with ETV5 it was 0.93; with ELF4, 0.937; with ETV2 it was 0.967. Further, the binding signal in the assay with ETV3L turned out to be 0.959.

Take GCGATT: the binding signal with FLI1 stood at 0.9; with EHF it was 0.889; in the assay with SPIB, 0.863; with ETV5, 0.89; with ELF4 it was 0.945; with ETV2, 0.852. This sequence also yielded a binding signal with ETV3L of 0.959.

For the sequence GCGACA, the binding signal is 0.941 with FLI1; 0.899 in the assay with EHF; 0.98 in the assay with SPIB; 0.947 with ETV5; 0.938 with ELF4; 0.914 in the assay with ETV2. Also, the binding signal with ETV3L was determined as 1.04.

In the case of GACATG, the binding signal was 0.972 with FLI1; 0.969 with EHF; 0.937 with SPIB; 0.842 with ETV5; 0.951 in the assay with ELF4; 0.911 with ETV2. In the assay with ETV3L, this sequence returned a binding signal of 0.979.

For the sequence CTGTGG, the binding signal in the assay with FLI1 turned out to be 0.961; in the assay with EHF, 0.905; with SPIB it was 0.893; in the assay with ETV5, 0.886; with ELF4, 0.897; with ETV2, 0.942. In the assay with ETV3L, the binding signal stood at 0.928.

With TAAGGA, the binding signal with FLI1 came out at 0.902; with EHF, 0.962; with SPIB, 0.879; with ETV5, 0.903; in the assay with ELF4, 0.859; with ETV2, 0.831. Besides, in the assay with ETV3L, the binding signal was 0.888.

Take ACGAGC: the binding signal in the assay with FLI1 stood at 0.995; with EHF, 1.02; with SPIB, 0.998; in the assay with ETV5, 0.926; with ELF4, 0.958; in the assay with ETV2 it was 1.04. In the assay with ETV3L, this sequence returned a binding signal of 0.916.

As to TTGAAG, the binding signal with FLI1 came out at 0.93; with EHF, 0.987; with SPIB, 0.985; with ETV5, 0.959; in the assay with ELF4, 0.99; with ETV2, 0.981. The sequence further came in with a binding signal with ETV3L of 0.972.

Turning to GTTGTC, the binding signal with FLI1 was determined as 0.883; in the assay with EHF it was 0.985; in the assay with SPIB, 0.918; with ETV5, 0.91; with ELF4, 0.838; with ETV2, 0.892. The same sequence yielded a binding signal in the assay with ETV3L of 0.85.

Regarding AGATAT, the binding signal in the assay with FLI1 was 0.921; with EHF it was 0.959; with SPIB, 0.995; with ETV5 it was 0.965; with ELF4, 0.955; with ETV2, 0.822. Besides, in the assay with ETV3L, the binding signal turned out to be 0.978.

In the case of GAGCTC, the binding signal is 0.952 in the assay with FLI1; 0.994 with EHF; 0.913 in the assay with SPIB; 0.944 with ETV5; 1.02 in the assay with ELF4; 0.895 with ETV2. Further, in the assay with ETV3L, the binding signal was determined as 0.903.

With ATTAGA, the binding signal with FLI1 is 0.934; in the assay with EHF it was 0.898; with SPIB it was 0.86; in the assay with ETV5, 0.847; in the assay with ELF4, 0.917; with ETV2, 0.986. In the assay with ETV3L, this sequence registered a binding signal of 0.863.

On to GTTGGC, for which the binding signal in the assay with FLI1 worked out at 0.985; with EHF, 0.869; in the assay with SPIB, 0.867; with ETV5 it was 0.896; in the assay with ELF4, 0.853; with ETV2 it was 0.912. The sequence further yielded a binding signal in the assay with ETV3L of 0.923.
